# The whole screen tested about 330,000 compounds, of which about 7,700 (2.3%) were called active. The inconclusive results got no clear call from the source; some entries with a clear call stand among them for comparison. Calls come from the whole dose curve; as a rule, active = well fitted inhibition curve with a large enough effect; inconclusive = small, poorly fitted or top-dose-only effect, or effect the other way; inactive = flat fitted curve, though single readings scatter. A potency beside an inconclusive call is a rough fit, not a confirmed value.
# Assay: qHTS screen for small molecules that inhibit ELG1-dependent DNA repair in human embryonic kidney (HEK293T) cells expressing luciferase-tagged ELG1; note: nearly all actives have a fitted effect of over 55% in size
# Details: HEK293T ELG1-luciferase reporter, luminescence, 16 h, DNA damage induced by 5-fluorouridine; activity change, negative = inhibition: at 46.1 µM (top of the series)
# Summary of the method: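 Reporter activity after DNA damage by 5-fluorouridine is monitored. Compound-treated cells incubate 16 hr at 37 °C, then ONE-Glo is added for 30 min before luminescence reading.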
# % is set by controls: 0 for no effect and ±100 for the full control effect; potency is the fitted concentration of half-maximal effect.
Structure (SMILES),Potency,"activity change, negative = inhibition"
COc1ccc(NC(=O)C2CCCN(C(=O)c3ccc(Cl)cc3)C2)cc1Cl (stereo unspecified),"inconclusive: 29.1 µM [inhibitor, single point]",–
Cn1c(-c2ccccc2)cnc1SCc1nc2ccccc2c(=O)[nH]1,"inconclusive: 2.31 µM [activator, partial curve]",–
CC(C)(C)C(=O)N1CCN(c2ncccc2C(F)(F)F)CC1,–,inactive: 0.99%
CCOc1ccc(CN(C)CC(=O)Nc2cc(OC)c([N+](=O)[O-])cc2C)cc1,"inconclusive: 23.1 µM [inhibitor, partial curve, poor fit]",–
CCC1CCCCN1C(=O)CSc1nnc(-c2ccc(Cl)s2)o1 (stereo unspecified),"inconclusive: 9.2 µM [activator, partial curve]",–
O=C(Nc1ccccc1)NC1CCN(Cc2c(F)cccc2Cl)CC1,"inconclusive: 20.6 µM [inhibitor, single point]",–
COc1ccc(-c2nc(C=O)cs2)cc1,"inconclusive: 18.3 µM [activator, single point]",–
CC(=O)C1=C(C)NC(=O)NC1c1ccc(Cl)cc1 (stereo unspecified),–,inactive: -8.13%
Cc1ccc(C(=O)NCCOc2cccc(C)c2)cc1,"inconclusive: 29.1 µM [activator, single point]",–
CCOc1ccc(CN(C)C(=O)CCNC(=O)c2ccco2)cc1,–,inactive: 11.4%
O=C(NNC(=O)c1ccccc1Cl)c1cccnc1,"inconclusive: 25.9 µM [activator, single point]",–
COc1ccc(NC(=O)c2ccc(COc3ccccc3)o2)cc1,"inconclusive: 20.6 µM [activator, partial curve, poor fit]",–
CCOC(=O)c1c(C)[nH]c(C)c1C=O,"inconclusive: 23.1 µM [activator, single point]",–
CC(C)CN(CC(C)C)S(=O)(=O)N1CCC(C(=O)NCc2ccc(F)cc2)CC1,"inconclusive: 11.2 µM [inhibitor, single point]",–
Cn1c(=O)c2c(nc(Oc3cccc(Br)c3)n2C)n(C)c1=O,"inconclusive: 0.231 µM [inhibitor, partial curve, poor fit]",–
COc1cccc(N(CC(=O)NCCSc2ccccn2)S(=O)(=O)c2ccccc2)c1,"inconclusive: 20.6 µM [inhibitor, single point]",–
COC(=O)N1c2ccccc2C=Cc2ccccc21,–,inactive: -14.7%
COc1cc(-c2nc(S(=O)(=O)c3ccc(C)cc3)c(N(C)C)o2)cc(OC)c1OC,"inconclusive: 4.11 µM [inhibitor, full curve]",–
CCc1ccc(NC(=O)C2CCCN2S(=O)(=O)c2ccc3c(c2)C(C)(C)C(=O)N3C)cc1 (stereo unspecified),"inconclusive: 20.6 µM [inhibitor, single point]",–
CCCCNC(=O)C1CCC(CNc2nc(=S)[nH]c3ccccc23)CC1 (stereo unspecified),–,inactive: 27.8%
COc1cccc(OCCOc2ccc(/C=C3\C(=N)N4N=C(S(C)(=O)=O)SC4=NC3=O)cc2OC)c1,–,inactive: 10.7%
COc1ccccc1CC(=O)NCCc1c[nH]c2ccccc12,–,inactive: -6%
CC(=O)c1cc(C#N)c(SCc2ccccc2)nc1C,"inconclusive: 23.1 µM [activator, partial curve]",–
Nc1nc(-c2ccccc2)cn1/N=C/c1ccccc1,"inconclusive: 29.1 µM [activator, single point]",–

Structure (SMILES),Potency,"activity change, negative = inhibition"
CCOc1cc(NS(=O)(=O)c2ccccc2)c(OCC)cc1NC(=O)c1ccco1,"inconclusive: 14.6 µM [inhibitor, partial curve, poor fit]",–
COc1ccccc1OC(=O)CCc1nc2ccccc2s1,–,inactive: 16.1%
COc1ccc(Cc2nnc(SCC(=O)Nc3ncc(C)s3)o2)cc1,–,inactive: -2.93%
CC1CC(C)CN(C(=O)CCc2ccccc2)C1 (stereo unspecified),"inconclusive: 29.1 µM [inhibitor, partial curve, poor fit]",–
COc1ccc(CNC(=O)C2CCN(C(=O)N(C)C)CC2)c(OC)c1,"inconclusive: 18.4 µM [activator, partial curve, poor fit]",–
Cc1ccc(/C=C2/NC(=O)N(c3ccccc3)C2=O)o1,"inconclusive: 29.1 µM [activator, single point]",–
CCOC(=O)CNc1nc(-c2ccncc2)nc2ccccc12,"inconclusive: 18.4 µM [inhibitor, single point]",–
COC(=O)C1=C(C)N(C)C(C)=C(C(=O)OC)C1c1ccc(C(=O)OC)cc1,"inconclusive: 1.26 µM [inhibitor, single point]",–
COc1cc(/C=C/C(=O)NC(=O)c2ccccc2O)ccc1OC(C)=O,"inconclusive: 29.1 µM [activator, single point]",–
CC(=O)N1c2ccc(S(=O)(=O)NCC3CCC(C(=O)NC4CCCCC4)CC3)cc2CC1C (stereo unspecified),–,inactive: -17.6%
CC(C)(O)C#Cc1ccc(C(=O)NCCC(=O)O)s1,–,inactive: 6.83%
Cc1ccccc1C(=O)Nc1ccc(N2CCCC2)cc1,"inconclusive: 2.59 µM [activator, single point]",–
O=C(Cn1c(=O)oc2ccccc21)Nc1nnc(N2CCCCCC2)s1,–,inactive: -1.77%
O=C(Oc1ccc2c3c(c(=O)oc2c1)CCC3)c1ccco1,–,inactive: 16.8%
Cc1ccc(C(=O)/C=C/c2ccc(-c3ccccc3[N+](=O)[O-])o2)cc1,–,inactive: 1.67%
c1ccc(-c2nnc3ccc(N4CCC5(CC4)OCCO5)nn23)cc1,"inconclusive: 32.6 µM [inhibitor, single point]",–
CC(CC(=O)Nc1ccncc1)c1ccccc1 (stereo unspecified),"inconclusive: 16.4 µM [inhibitor, single point]",–
Cc1ccc2nc(Nc3ccc4[nH]c(=O)[nH]c4c3)c(-n3nc(C)cc3C)nc2c1,"inconclusive: 6.51 µM [activator, partial curve]",–
CC(C)(C)C(=O)NCCCc1nc2ccccc2n1CCCOc1ccc(Cl)cc1,active: 23.1 µM,–
Cc1ccc(CN2C(=O)c3ccccc3Sc3ccc(C(=O)NCCCN4CCOCC4)cc32)cc1,"inconclusive: 29.1 µM [inhibitor, single point]",–
O=C(CN1C(=O)NC2(CCCCCC2)C1=O)c1ccc2c(c1)OCCO2,"inconclusive: 11.6 µM [activator, partial curve]",–
COC(=O)c1ccc(C23CC4(C2)[C@H](CN(Cc2ccc(C(F)(F)F)cc2)[C@@H]4c2ccccc2)C3c2ccc(Cl)nc2)cc1 (stereo partly specified),–,inactive: -1.48%
CCc1cc2cc(C)cc(C)c2nc1SCC(=O)N1CCCC1,–,inactive: -8.1%
Cc1ccc(-c2nsc3c(N4CCN(C(=O)c5ccco5)CC4)ncnc23)cc1,"inconclusive: 16.4 µM [activator, partial curve, poor fit]",–

# Filtered by structure: the compounds so far containing an aryl methoxy group.
Structure (SMILES),Potency,"activity change, negative = inhibition"
COc1ccc(NC(=O)C2CCCN(C(=O)c3ccc(Cl)cc3)C2)cc1Cl (stereo unspecified),"inconclusive: 29.1 µM [inhibitor, single point]",–
CCOc1ccc(CN(C)CC(=O)Nc2cc(OC)c([N+](=O)[O-])cc2C)cc1,"inconclusive: 23.1 µM [inhibitor, partial curve, poor fit]",–
COc1ccc(-c2nc(C=O)cs2)cc1,"inconclusive: 18.3 µM [activator, single point]",–
COc1ccc(NC(=O)c2ccc(COc3ccccc3)o2)cc1,"inconclusive: 20.6 µM [activator, partial curve, poor fit]",–
COc1cccc(N(CC(=O)NCCSc2ccccn2)S(=O)(=O)c2ccccc2)c1,"inconclusive: 20.6 µM [inhibitor, single point]",–
COc1cc(-c2nc(S(=O)(=O)c3ccc(C)cc3)c(N(C)C)o2)cc(OC)c1OC,"inconclusive: 4.11 µM [inhibitor, full curve]",–
COc1cccc(OCCOc2ccc(/C=C3\C(=N)N4N=C(S(C)(=O)=O)SC4=NC3=O)cc2OC)c1,–,inactive: 10.7%
COc1ccccc1CC(=O)NCCc1c[nH]c2ccccc12,–,inactive: -6%
COc1ccccc1OC(=O)CCc1nc2ccccc2s1,–,inactive: 16.1%
COc1ccc(Cc2nnc(SCC(=O)Nc3ncc(C)s3)o2)cc1,–,inactive: -2.93%
COc1ccc(CNC(=O)C2CCN(C(=O)N(C)C)CC2)c(OC)c1,"inconclusive: 18.4 µM [activator, partial curve, poor fit]",–
COc1cc(/C=C/C(=O)NC(=O)c2ccccc2O)ccc1OC(C)=O,"inconclusive: 29.1 µM [activator, single point]",–

# (more compounds)

Structure (SMILES),Potency,"activity change, negative = inhibition"
CN(C)NC(=S)Nc1ccc(S(=O)(=O)N2CCCCC2)cc1,–,inactive: -5.88%
COc1ccc(CN(C)C(=O)c2ccc3c(=O)n4c(nc3c2)CCC4)cc1,"inconclusive: 10.3 µM [activator, partial curve]",–
COc1ccc(S(=O)(=O)N2CCN(C(=O)c3cc(C)nc4ccccc34)CC2)cc1OC,–,inactive: -8.16%
CCOc1ccc(S(=O)(=O)Nc2ccc(F)cc2)c(C)c1C,"inconclusive: 7.31 µM [inhibitor, partial curve]",–
Cc1ccc(-c2n[nH]c(=O)c3ccccc23)cc1S(=O)(=O)N(C)C,–,inactive: -9.09%
COc1ccc(/C(C)=N/NC(=S)NCCc2ccccc2)cc1,"inconclusive: 29.1 µM [inhibitor, single point]",–
COc1cccc(C(c2nnnn2Cc2ccccc2)N2CCN(C3CCCC3)CC2)c1OC (stereo unspecified),"inconclusive: 9.2 µM [inhibitor, partial curve]",–
Nc1ncc(Br)cc1Br,"inconclusive: 10.3 µM [inhibitor, partial curve, poor fit]",–
C(=N\n1cnnc1)/c1cn(-c2cccs2)nc1-c1ccccc1,"inconclusive: 29.1 µM [activator, single point]",–
O=C(NC1CCCCC1)N(Cc1cc2cc3c(cc2[nH]c1=O)OCCO3)C1CCCCC1,"inconclusive: 23.1 µM [inhibitor, single point]",–
CCCCn1c(-c2ccoc2C)n[nH]c1=S,–,inactive: -10.7%
O=C(O)/C=C/c1ccc2c(-c3ccccc3)onc2c1,"inconclusive: 13 µM [inhibitor, partial curve, poor fit]",–
CCn1c(COc2cccc(C)c2C)nnc1SCC(=O)N1CCN(c2ccc(OC)cc2)CC1,active: 10.3 µM,–
CC(C)C(NC(=O)COc1ccc2ccccc2c1)C(=O)N/N=C/C=C/c1ccccc1 (stereo unspecified),–,inactive: -21.7%
Cn1ncc(C#N)c1NC(=O)C1CC(c2ccc(Cl)cc2)=NO1 (stereo unspecified),–,inactive: 17.9%
O=C1CCCN1CCCNc1ncnc2c1[nH]c1ccccc12,"inconclusive: 35.5 µM [inhibitor, single point]",–
Cc1cc(C(=O)Nc2sc(C)c(C)c2C#N)no1,"inconclusive: 9.2 µM [activator, partial curve]",–
COc1cccc(C(=O)Nc2cc(NC(=O)c3ccco3)ccc2OC)c1,"inconclusive: 12.6 µM [inhibitor, single point]",–
CCOC(=O)N1CCN(c2c(-c3ccc(C(C)C)cc3)c(=O)c2=O)CC1,"inconclusive: 29.1 µM [activator, single point]",–
CCn1c(-c2ccc(F)cc2)cnc1SCC(=O)N1CCCCC1C (stereo unspecified),"inconclusive: 18.4 µM [activator, partial curve]",–
CCOC(=O)c1ccccc1NC(=O)c1ccc(N(C)S(C)(=O)=O)cc1,"inconclusive: 18.4 µM [inhibitor, single point]",–
O=C(Cc1ccc(S(=O)(=O)N2CCOCC2)s1)Nc1cc(Cl)ccc1Cl,"inconclusive: 20.6 µM [inhibitor, partial curve, poor fit]",–
CNC(=S)NNC(=O)c1cccn(Cc2cccc(Cl)c2)c1=O,"inconclusive: 0.58 µM [activator, full curve, poor fit]",–

# Some of the entries above in another layout:
Structure (SMILES)	Potency	activity change, negative = inhibition
Nc1ncc(Br)cc1Br	inconclusive: 10.3 µM [inhibitor, partial curve, poor fit]	–
C(=N\n1cnnc1)/c1cn(-c2cccs2)nc1-c1ccccc1	inconclusive: 29.1 µM [activator, single point]	–

# Reference: PubChem BioAssay AID504467 (National Center for Advancing Translational Sciences (NCATS), 2011)
